This is one part of the list.
Experiments:
Test in all cases: log2 fold change, soluble protein after heating vs DMSO (PISA); higher = thermal stabilisation; K562 cells, 10 uM, 30 min; active = over 0.2 and 3.5 SD of the protein, either way, in both replicates (recomputed)
[1] = compound: CC[C@@H]1C(=O)N(C)c2cnc(Nc3ccc(C(=O)NC4CCN(C)CC4)cc3OC)nc2N1C1CCCC1
Outline: (§1)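 K562 cells at 2×10^6 cells/mL were treated for 30 min with 10 μM compound, and aliquots were heated for 3 min over 48°C-58°C before pooling. Extraction used PBS with 0.5% NP-40 at 4°C, and soluble protein was the supernatant after 21,000xg for 90 min, measured by TMTpro 16plex LC-MS/MS with channel sums equalised. Thermal stability values, relative to control samples and from duplicates, are log2 fold changes.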

By UniProt entry, the sequences of proteins in these tests, tags left out. Where a name states a change or a piece, a line headed by the entry shows the natural chain unless it says otherwise.
UniProt Q6ZNA5: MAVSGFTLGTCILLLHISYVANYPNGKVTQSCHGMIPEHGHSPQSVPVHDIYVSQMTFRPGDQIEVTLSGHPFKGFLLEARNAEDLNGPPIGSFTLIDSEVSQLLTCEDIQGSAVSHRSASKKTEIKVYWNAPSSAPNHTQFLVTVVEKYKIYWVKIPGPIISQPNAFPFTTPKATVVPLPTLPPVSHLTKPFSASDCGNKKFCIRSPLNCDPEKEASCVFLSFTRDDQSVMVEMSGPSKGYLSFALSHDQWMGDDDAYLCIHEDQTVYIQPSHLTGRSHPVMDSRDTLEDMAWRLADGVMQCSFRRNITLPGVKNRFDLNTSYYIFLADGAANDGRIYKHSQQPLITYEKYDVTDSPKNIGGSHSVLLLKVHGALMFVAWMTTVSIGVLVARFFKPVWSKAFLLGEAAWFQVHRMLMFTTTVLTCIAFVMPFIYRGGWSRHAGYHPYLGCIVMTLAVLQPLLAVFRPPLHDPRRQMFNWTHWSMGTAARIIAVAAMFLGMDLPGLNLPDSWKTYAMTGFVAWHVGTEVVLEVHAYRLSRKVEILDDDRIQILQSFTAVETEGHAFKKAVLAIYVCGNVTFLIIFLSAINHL
UniProt Q9NZ52: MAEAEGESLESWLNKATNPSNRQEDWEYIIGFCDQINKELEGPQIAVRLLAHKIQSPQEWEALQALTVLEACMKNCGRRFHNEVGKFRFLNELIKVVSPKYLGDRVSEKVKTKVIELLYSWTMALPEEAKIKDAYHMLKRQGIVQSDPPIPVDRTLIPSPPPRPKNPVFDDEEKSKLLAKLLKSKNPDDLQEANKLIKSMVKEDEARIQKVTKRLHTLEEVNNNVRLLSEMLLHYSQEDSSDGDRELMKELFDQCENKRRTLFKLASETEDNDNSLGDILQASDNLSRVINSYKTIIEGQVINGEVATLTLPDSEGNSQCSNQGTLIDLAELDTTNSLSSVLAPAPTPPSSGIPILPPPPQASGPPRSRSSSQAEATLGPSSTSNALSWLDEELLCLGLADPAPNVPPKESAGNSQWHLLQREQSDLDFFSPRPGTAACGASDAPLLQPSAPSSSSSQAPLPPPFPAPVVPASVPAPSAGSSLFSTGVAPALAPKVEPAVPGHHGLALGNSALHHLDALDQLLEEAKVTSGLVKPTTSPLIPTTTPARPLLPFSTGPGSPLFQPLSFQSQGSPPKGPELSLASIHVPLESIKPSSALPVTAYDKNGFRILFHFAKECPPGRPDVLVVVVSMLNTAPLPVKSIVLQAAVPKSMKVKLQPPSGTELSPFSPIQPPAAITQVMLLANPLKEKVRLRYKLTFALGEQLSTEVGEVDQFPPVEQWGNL
UniProt P36268: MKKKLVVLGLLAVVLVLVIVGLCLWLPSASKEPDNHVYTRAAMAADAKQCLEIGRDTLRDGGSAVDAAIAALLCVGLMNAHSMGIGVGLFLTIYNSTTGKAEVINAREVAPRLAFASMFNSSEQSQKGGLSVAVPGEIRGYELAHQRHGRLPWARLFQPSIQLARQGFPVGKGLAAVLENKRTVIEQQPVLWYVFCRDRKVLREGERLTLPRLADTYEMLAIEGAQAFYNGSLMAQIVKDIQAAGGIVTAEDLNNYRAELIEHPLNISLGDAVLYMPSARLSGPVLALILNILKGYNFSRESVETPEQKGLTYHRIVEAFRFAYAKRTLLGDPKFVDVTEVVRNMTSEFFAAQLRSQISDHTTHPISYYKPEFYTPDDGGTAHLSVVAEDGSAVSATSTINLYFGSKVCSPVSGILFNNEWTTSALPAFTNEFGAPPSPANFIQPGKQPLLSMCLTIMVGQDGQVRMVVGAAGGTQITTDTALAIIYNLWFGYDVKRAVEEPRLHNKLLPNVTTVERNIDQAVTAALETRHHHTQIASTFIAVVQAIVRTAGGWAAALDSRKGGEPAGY
UniProt Q16595: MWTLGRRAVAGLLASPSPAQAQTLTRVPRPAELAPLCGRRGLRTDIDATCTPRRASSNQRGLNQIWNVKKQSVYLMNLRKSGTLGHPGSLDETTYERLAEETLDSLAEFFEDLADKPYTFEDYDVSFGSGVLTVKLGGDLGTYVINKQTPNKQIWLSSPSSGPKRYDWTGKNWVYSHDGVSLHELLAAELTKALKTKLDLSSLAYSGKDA
UniProt Q96CU9: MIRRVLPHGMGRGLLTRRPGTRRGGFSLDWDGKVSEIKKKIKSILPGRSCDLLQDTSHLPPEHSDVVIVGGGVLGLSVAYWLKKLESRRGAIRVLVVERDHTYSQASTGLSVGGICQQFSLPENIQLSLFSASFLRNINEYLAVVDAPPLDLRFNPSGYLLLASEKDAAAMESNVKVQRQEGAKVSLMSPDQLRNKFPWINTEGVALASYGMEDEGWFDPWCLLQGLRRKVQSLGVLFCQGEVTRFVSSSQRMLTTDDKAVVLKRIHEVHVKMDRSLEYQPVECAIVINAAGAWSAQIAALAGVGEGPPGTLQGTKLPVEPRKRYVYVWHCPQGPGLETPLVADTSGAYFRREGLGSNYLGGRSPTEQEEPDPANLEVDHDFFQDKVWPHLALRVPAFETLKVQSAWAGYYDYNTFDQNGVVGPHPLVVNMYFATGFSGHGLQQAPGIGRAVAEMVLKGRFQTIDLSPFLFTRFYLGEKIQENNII
UniProt P50395: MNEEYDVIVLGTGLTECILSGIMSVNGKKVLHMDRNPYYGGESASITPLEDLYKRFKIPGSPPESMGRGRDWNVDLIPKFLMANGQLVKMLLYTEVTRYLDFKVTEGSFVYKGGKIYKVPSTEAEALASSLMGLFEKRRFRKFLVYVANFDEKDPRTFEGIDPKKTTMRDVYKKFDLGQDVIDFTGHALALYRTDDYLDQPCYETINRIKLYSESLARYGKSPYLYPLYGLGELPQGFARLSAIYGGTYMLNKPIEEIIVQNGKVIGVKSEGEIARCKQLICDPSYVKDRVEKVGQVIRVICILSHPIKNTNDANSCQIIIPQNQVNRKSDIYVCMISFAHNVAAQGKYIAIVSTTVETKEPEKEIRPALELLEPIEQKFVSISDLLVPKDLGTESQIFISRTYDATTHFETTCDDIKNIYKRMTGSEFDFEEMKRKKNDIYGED
UniProt P35637: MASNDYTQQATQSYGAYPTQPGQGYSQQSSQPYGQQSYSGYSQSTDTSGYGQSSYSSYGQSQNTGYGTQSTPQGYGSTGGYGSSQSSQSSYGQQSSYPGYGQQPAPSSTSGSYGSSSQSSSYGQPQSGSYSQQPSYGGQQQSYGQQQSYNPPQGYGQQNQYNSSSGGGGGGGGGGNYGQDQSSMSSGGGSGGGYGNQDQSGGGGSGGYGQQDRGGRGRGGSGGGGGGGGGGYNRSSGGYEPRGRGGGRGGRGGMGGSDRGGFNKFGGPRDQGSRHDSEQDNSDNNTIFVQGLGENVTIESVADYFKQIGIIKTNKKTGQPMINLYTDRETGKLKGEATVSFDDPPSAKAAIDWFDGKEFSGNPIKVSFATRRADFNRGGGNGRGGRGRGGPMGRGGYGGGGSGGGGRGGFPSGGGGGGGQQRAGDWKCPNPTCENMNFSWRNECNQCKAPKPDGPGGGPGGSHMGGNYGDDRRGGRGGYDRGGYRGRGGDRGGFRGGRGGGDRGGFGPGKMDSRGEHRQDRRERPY
UniProt Q14376: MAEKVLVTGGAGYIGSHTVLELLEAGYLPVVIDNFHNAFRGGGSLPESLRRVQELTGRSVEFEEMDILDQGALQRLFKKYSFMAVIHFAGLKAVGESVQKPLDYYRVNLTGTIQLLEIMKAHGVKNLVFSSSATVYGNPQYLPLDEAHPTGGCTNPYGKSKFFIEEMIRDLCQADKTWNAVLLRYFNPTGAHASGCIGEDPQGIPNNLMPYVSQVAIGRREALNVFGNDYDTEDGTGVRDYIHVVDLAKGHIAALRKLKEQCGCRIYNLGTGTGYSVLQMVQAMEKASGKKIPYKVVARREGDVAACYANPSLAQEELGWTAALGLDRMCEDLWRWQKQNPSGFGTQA
UniProt P02794, whole entry, looked up: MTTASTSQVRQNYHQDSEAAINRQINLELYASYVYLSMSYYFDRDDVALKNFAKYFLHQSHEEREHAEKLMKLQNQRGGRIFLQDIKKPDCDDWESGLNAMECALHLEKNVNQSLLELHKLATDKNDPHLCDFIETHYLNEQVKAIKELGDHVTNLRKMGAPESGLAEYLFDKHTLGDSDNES
UniProt P15407: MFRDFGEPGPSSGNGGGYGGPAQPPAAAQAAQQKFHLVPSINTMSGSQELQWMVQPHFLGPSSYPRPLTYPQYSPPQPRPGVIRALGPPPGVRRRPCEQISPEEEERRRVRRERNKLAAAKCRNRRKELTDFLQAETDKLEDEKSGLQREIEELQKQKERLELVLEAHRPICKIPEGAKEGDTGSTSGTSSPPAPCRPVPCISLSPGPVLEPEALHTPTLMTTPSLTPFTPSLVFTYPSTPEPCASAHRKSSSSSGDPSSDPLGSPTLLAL
UniProt Q96AE4: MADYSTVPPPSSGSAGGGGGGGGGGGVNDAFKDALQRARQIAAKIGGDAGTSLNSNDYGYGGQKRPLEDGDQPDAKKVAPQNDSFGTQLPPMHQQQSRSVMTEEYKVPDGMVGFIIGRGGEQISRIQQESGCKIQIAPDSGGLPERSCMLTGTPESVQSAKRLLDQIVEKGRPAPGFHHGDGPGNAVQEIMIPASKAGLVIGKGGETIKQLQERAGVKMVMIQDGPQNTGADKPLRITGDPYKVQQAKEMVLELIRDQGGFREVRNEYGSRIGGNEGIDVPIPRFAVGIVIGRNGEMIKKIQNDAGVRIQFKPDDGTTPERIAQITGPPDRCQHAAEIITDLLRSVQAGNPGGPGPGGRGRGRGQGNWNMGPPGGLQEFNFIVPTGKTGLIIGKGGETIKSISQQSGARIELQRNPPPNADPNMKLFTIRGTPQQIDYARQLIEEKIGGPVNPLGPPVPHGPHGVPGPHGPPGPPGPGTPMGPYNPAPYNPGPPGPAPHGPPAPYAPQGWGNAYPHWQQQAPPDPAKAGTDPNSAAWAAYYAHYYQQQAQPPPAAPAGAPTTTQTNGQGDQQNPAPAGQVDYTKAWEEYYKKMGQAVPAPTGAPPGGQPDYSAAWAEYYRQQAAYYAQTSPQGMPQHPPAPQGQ
UniProt Q9H3C7, whole entry, looked up: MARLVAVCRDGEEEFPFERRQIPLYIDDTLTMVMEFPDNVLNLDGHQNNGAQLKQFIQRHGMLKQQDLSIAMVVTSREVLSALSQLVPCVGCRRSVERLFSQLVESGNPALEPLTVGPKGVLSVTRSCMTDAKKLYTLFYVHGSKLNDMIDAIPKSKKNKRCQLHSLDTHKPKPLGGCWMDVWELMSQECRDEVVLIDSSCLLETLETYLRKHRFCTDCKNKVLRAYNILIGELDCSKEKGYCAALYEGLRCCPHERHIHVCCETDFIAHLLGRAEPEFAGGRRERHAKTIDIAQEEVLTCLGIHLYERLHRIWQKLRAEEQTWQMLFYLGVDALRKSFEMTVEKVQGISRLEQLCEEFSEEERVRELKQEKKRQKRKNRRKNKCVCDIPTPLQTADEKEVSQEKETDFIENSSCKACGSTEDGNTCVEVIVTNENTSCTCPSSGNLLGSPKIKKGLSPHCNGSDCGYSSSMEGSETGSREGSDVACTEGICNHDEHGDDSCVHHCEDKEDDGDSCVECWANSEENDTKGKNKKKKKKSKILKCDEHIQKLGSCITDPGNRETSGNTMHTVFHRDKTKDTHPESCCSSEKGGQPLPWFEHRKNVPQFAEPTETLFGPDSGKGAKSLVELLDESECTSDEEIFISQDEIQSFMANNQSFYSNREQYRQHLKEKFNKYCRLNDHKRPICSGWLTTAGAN
UniProt P30047: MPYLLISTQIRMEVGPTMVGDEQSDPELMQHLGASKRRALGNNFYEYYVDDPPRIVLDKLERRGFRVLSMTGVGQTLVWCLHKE

[2] = compound: CC[C@@H]1C(=O)N(C)c2cnc(Nc3ccc(C(=O)N[C@H]4CC[C@H](N5CCN(CC6CC6)CC5)CC4)cc3OC)nc2N1C(C)C [volasertib]
Outline: as §1

[3] = compound: CC[C@H](C)N1C=C(C2=C(C=C(C=C21)C3=CN=C(C=C3)N4CCNCC4)C(=O)NCC5=C(C=C(NC5=O)C)C)C
Outline: as §1

[4] = compound: CC[C@H](C)[C@@H](C(=O)N[C@@H]([C@@H](C)O)C(=O)N[C@@H](CC(C)C)C(=O)[C@]1(CO1)C)NC(=O)[C@H]([C@@H](C)CC)N(C)C(=O)C [epoxomicin]
Outline: as §1

[5] = compound: CCn1c(C(=O)N(C2CC2)C2CC2)cc2c3c(ncn3C)c(Nc3cc(C)n(C)n3)nc21
Outline: as §1

[6] = compound: CCn1cc(-c2ccnc3[nH]c(-c4cccc(CN(C)C)c4)cc23)c(-c2ccc(NC(=O)N(C)C)cc2)n1
Outline: as §1

[7] = compound: CN(C)CC(=O)Nc1ccc2[nH]c(=O)c3ccccc3c2c1
Outline: as §1

[8] = compound: CN(CCOC1=CC=C(C=C1)C[C@H]2C(=O)NC(=O)S2)C3=CC=CC=N3 (racemic) [rosiglitazone]
Outline: as §1

[9] = compound: CN1C2=C(C3=C1C(=O)N(N=C3)CC4=CC(=CC=C4)N)SC(=C2)S(=O)C
Outline: as §1

[10] = compound: CN1CCC(CNc2ccc3ncc(-c4cccc(OC(F)(F)F)c4)n3n2)CC1
Outline: as §1

[11] = compound: CN1CCN(CCOc2cc(OC3CCOCC3)c3c(Nc4c(Cl)ccc5c4OCO5)ncnc3c2)CC1 [saracatinib]
Outline: as §1

[12] = compound: CN1CCN(c2nc(C3=C(c4c[nH]c5ccccc45)C(=O)NC3=O)c3ccccc3n2)CC1 [sotrastaurin]
Outline: as §1

[13] = compound: CN1CC[C@H](c2c(O)cc(O)c3c(=O)cc(-c4ccccc4Cl)oc23)[C@H](O)C1 [alvocidib]
Outline: as §1

[14] = compound: CN1CCc2c(c3ccccc3n2Cc2ccc(C(=O)NO)cc2)C1 [Tubastatin A]
Outline: as §1

[15] = compound: CNC(=O)C1=CC=CC=C1NC2=NC(=NC=C2Cl)NC3=C(C=C(C=C3)N4CCOCC4)OC
Outline: as §1

[16] = compound: CNC(=O)c1ccc(Nc2ncc(C(F)(F)F)c(NCc3nccnc3N(C)S(C)(=O)=O)n2)cc1 [defactinib]
Outline: as §1

[17] = compound: CNCc1ccc(-c2[nH]c3cc(F)cc4c3c2CCNC4=O)cc1 [rucaparib]
Outline: as §1

[18] = compound: CNc1nc(-c2ccc3c(N)n[nH]c3c2)cc(N2C[C@@H](C(=O)NC3CCCCC3)CC[C@H]2C)n1
Outline: as §1

[19] = compound: COC(=O)N[C@@H](C)CNc1nccc(-c2cn(C(C)C)nc2-c2cc(Cl)cc(NS(C)(=O)=O)c2F)n1 [encorafenib]
Outline: as §1

[20] = compound: COC(=O)[C@H](CCSC)NC(=O)C1=C(C=C(C=C1)NC[C@H](CS)N)C2=CC=CC=C2
Outline: as §1

Measured: log2 fold change

FRRS1 (UniProt Q6ZNA5)
inactive: [1] 0.11 | [2] 0.002 | [3] -0.039 | [4] 0.026 | [5] -0.001 | [6] 0.007 | [7] 0.019 | [8] -0.016 | [9] 0.004 | [10] 0.027 | [11] 0.006 | [12] 0.034 | [13] 0 | [14] 0.031 | [15] -0.011 | [16] -0.022 | [17] -0.074 | [18] -0.089 | [19] 0.038 | [20] -0.046

GART (UniProt C9JZG2)
inactive: [1] 0.043 | [2] 0.015 | [3] -0.157 | [4] 0.022 | [5] -0.142 | [6] 0.072 | [7] -0.028 | [8] 0.106 | [9] -0.012 | [10] -0.193 | [11] -0.208 | [12] -0.012 | [13] 0.121 | [14] -0.173 | [15] 0.034 | [16] 0.046 | [17] -0.47 | [18] -0.064 | [19] 0.048 | [20] -0.016

GGA3 (UniProt Q9NZ52)
inactive: [1] -0.025 | [2] -0.169 | [3] 0.032 | [4] 0.032 | [5] -0.039 | [6] -0.044 | [7] 0.09 | [8] 0.009 | [9] 0.045 | [10] 0.002 | [11] -0.039 | [12] -0.022 | [13] -0.1 | [14] 0.077 | [15] -0.079 | [16] -0.061 | [17] 0.012 | [18] 0.051 | [19] 0.049 | [20] -0.012

Copied from the listing (two entries):
GART (UniProt C9JZG2)
inactive: [1] 0.043 | [2] 0.015 | [3] -0.157 | [4] 0.022 | [5] -0.142 | [6] 0.072 | [7] -0.028 | [8] 0.106 | [9] -0.012 | [10] -0.193 | [11] -0.208 | [12] -0.012 | [13] 0.121 | [14] -0.173 | [15] 0.034 | [16] 0.046 | [17] -0.47 | [18] -0.064 | [19] 0.048 | [20] -0.016

GGA3 (UniProt Q9NZ52)
inactive: [1] -0.025 | [2] -0.169 | [3] 0.032 | [4] 0.032 | [5] -0.039 | [6] -0.044 | [7] 0.09 | [8] 0.009 | [9] 0.045 | [10] 0.002 | [11] -0.039 | [12] -0.022 | [13] -0.1 | [14] 0.077 | [15] -0.079 | [16] -0.061 | [17] 0.012 | [18] 0.051 | [19] 0.049 | [20] -0.012

Following part:

GGT2 isoform 3 (UniProt P36268)
inactive: [1] 0.168 | [2] 0.107 | [3] 0.046 | [4] -0.056 | [5] 0.06 | [6] -0.025 | [7] -0.042 | [8] -0.019 | [9] -0.051 | [10] 0.121 | [11] 0.006 | [12] 0.07 | [13] 0.032 | [14] -0.242 | [15] -0.006 | [16] 0.02 | [17] -0.008 | [18] 0.023 | [19] -0.002 | [20] 0.023

FXN (UniProt Q16595)
inactive: [1] -0.009 | [2] -0.045 | [3] 0.029 | [4] 0.02 | [5] 0.046 | [6] -0.036 | [7] 0.085 | [8] 0.002 | [9] -0.036 | [10] 0.12 | [11] -0.078 | [12] -0.024 | [13] -0.023 | [14] 0.018 | [15] 0.062 | [16] -0.078 | [17] 0.078 | [18] 0.029 | [19] -0.037 | [20] -0.113

FOXRED1 (UniProt Q96CU9)
inactive: [1] -0.009 | [2] -0.085 | [3] -0.036 | [4] 0.011 | [5] 0.018 | [6] 0.007 | [7] -0.063 | [8] 0.048 | [9] -0.116 | [10] -0.019 | [11] 0.021 | [12] 0.017 | [13] -0.048 | [14] -0.107 | [15] -0.013 | [16] -0.005 | [17] -0.044 | [18] 0.045 | [19] 0.032 | [20] -0.001

GDI2 (UniProt P50395)
inactive: [1] -0.023 | [2] 0.134 | [3] 0.016 | [4] 0.045 | [5] -0.002 | [6] -0.043 | [7] -0.031 | [8] 0.029 | [9] -0.098 | [10] 0.018 | [11] -0.007 | [12] 0.009 | [13] -0.062 | [14] -0.005 | [15] 0.2 | [16] 0.004 | [17] -0.065 | [18] 0.005 | [19] -0.005 | [20] 0.021

FUS (UniProt P35637)
inactive: [1] 0.16 | [2] 0.223 | [3] -0.037 | [4] -0.097 | [5] -0.006 | [6] 0.119 | [7] -0.145 | [8] -0.092 | [9] 0.071 | [10] 0.134 | [11] 0.052 | [12] 0.028 | [13] 0.188 | [14] -0.038 | [15] 0.007 | [16] 0.174 | [17] 0.141 | [18] -0.06 | [19] 0.002 | [20] 0.069

GEMIN4 (UniProt P57678)
inactive: [1] 0.206 | [2] -0.898 | [3] -0.028 | [4] -0.223 | [5] -0.097 | [6] 0.19 | [7] 0.059 | [8] -0.235 | [9] 0.462 | [10] -0.368 | [11] -0.192 | [12] -0.284 | [13] 0.416 | [14] 0.233 | [15] -0.235 | [16] 0.318 | [17] 0.406 | [18] 0.142 | [19] 0.251 | [20] -0.248

GALE (UniProt Q14376)
inactive: [1] -0.03 | [2] 0.051 | [3] 0.015 | [4] 0.066 | [5] -0.065 | [6] -0.029 | [7] 0 | [8] -0.029 | [9] -0.144 | [10] 0.016 | [11] -0.039 | [12] 0.114 | [13] -0.061 | [14] -0.007 | [15] -0.011 | [16] -0.017 | [17] -0.114 | [18] 0.02 | [19] -0.002 | [20] -0.004

FTH1 (UniProt P02794)
inactive: [1] -0.079 | [2] -0.011 | [3] 0.122 | [4] 0.069 | [5] 0.012 | [6] 0.021 | [7] -0.028 | [8] -0.038 | [9] 0.062 | [10] -0.115 | [11] -0.195 | [12] -0.041 | [13] 0.064 | [14] -0.072 | [15] -0.007 | [16] 0 | [17] -0.038 | [18] -0.094 | [19] 0.013 | [20] 0.053

FYCO1 isoform 4 (UniProt Q9BQS8)
inactive: [1] -0.032 | [2] -0.153 | [3] 0.09 | [4] -0.013 | [5] -0.045 | [6] -0.146 | [7] 0.016 | [8] 0.009 | [9] -0.013 | [10] 0.014 | [11] 0.041 | [12] -0.019 | [13] -0.112 | [14] 0.04 | [15] -0.034 | [16] -0.068 | [17] 0.077 | [18] -0.185 | [19] 0.005 | [20] -0.01

FOSL1 (UniProt P15407)
inactive: [1] 0.17 | [2] 0.026 | [3] -0.051 | [4] 0.055 | [5] 0.044 | [6] -0.059 | [7] -0.284 | [8] 0.104 | [9] -0.058 | [10] -0.044 | [11] 0.094 | [12] 0.003 | [13] 0.036 | [15] 0.096 | [16] 0.057 | [17] 0.037 | [18] 0.03 | [19] 0.024 | [20] 0.003

FUBP1 isoform 2 (UniProt Q96AE4)
inactive: [1] 0.001 | [2] 0.067 | [3] -0.063 | [4] -0.018 | [5] -0.013 | [6] 0.003 | [7] -0.024 | [8] -0.011 | [9] -0.032 | [10] 0.01 | [11] 0.036 | [12] 0.049 | [13] 0.006 | [14] -0.018 | [15] 0.026 | [16] 0.014 | [17] -0.03 | [18] -0.046 | [19] -0.023 | [20] 0.003

GGNBP2 (UniProt Q9H3C7)
inactive: [1] 0.032 | [2] 0.14 | [3] -0.048 | [4] 0.062 | [5] 0.018 | [6] -0.05 | [7] -0.072 | [8] 0.03 | [9] 0.228 | [10] 0.077 | [11] -0.147 | [12] -0.075 | [13] 0.031 | [14] 0.08 | [15] 0.059 | [16] 0.112 | [17] 0.109 | [18] 0.186 | [19] -0.037 | [20] 0.078

GCHFR (UniProt P30047)
inactive: [1] 0.192 | [2] 0.07 | [3] -0.019 | [4] -0.009 | [5] -0.067 | [6] 0.161 | [7] 0.062 | [8] 0.064 | [9] 0.163 | [10] -0.124 | [11] -0.075 | [12] 0.027 | [13] -0.027 | [14] -0.002 | [15] -0.016 | [16] -0.09 | [17] -0.129 | [18] -0.08 | [19] -0.042 | [20] 0.1
